From article PMC13134614, “In vitro liquid-liquid phase separation induced by respiratory syncytial virus proteins and RNA” (Science Advances, 2025) come the findings set out here.

By UniProt entry, the sequences of proteins in these tests, tags left out. Where a name states a change or a piece, a line headed by the entry shows the natural chain unless it says otherwise. Chains listed by the source or under a name are the forms on record and can include a tag or linker. Residues count along the entry.
UniProt P03418: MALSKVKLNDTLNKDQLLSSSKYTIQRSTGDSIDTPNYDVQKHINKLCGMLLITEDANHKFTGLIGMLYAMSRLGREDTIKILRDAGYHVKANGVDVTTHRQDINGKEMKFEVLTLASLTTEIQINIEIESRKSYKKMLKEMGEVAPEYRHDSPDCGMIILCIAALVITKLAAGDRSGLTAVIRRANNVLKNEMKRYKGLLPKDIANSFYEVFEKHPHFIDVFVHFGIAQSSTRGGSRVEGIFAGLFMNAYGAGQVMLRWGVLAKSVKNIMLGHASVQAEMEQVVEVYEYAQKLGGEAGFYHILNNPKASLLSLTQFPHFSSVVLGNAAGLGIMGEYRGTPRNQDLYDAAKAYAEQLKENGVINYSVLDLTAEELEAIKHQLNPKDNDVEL
UniProt P03421: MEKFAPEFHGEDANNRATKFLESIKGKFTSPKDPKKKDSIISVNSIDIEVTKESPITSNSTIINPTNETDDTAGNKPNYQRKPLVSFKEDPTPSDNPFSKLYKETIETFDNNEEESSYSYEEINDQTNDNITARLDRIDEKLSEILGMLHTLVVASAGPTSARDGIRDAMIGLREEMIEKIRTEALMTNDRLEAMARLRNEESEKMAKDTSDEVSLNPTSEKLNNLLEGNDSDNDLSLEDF
PCTD (residues 163 to 241 of P) fused to glutathione S-transferase (respiratory syncytial virus (RSV)): residues 163-241 of P03421

These are yes or no findings as the source states them, for the method shown. For some assays here: In cells and extracts the contact can be indirect. Some results given as binding are weak or reduced against the parent protein; the word gives no strength.

For test [1], the target named is RSV nucleoprotein N, wild type, N-RNA rings (respiratory syncytial virus (RSV)) (UniProt P03418). In words: native gel or EMSA; band shift on native 1% agarose gel; proteins alone or mixed, 30 min at room temperature in 20 mM tris pH 8, 150 mM NaCl; tris-glycine, 80 V, Amido black 10B staining; N-P40 at 10 and 20 μM; both purified. Background: In EMSA bound probe runs differently from free probe, usually more slowly.

Test [2] deals with PCTD (residues 163 to 241 of P) fused to glutathione S-transferase (respiratory syncytial virus (RSV)) (UniProt P03421). Briefly: pull-down; co-purification of N-RNA rings on GST-PCTD from E. coli cotransformed with pGEX-PCT and pET28-N.

For “RSV phosphoprotein P, full length (from UniProt P03421 1-241)”, the binding entry in test [1] is given as “binds”.

In the case of “RSV nucleoprotein N, wild type, N-RNA rings (from UniProt P03418 1-391)”, the binding entry in test [2] is recorded as “binds”.
